Measurements published in article PMC3115958.
These are yes or no findings as the source states them, for the method shown. Some entries that bind do so weakly or less than the wild type. For part of these data: Where a sequence is shown, tags or fusion partners need not be part of it.

The chains behind the UniProt entries cited, without tags or fusion partners. Residues count along the entry.
UniProt Q99523, residues 78-831: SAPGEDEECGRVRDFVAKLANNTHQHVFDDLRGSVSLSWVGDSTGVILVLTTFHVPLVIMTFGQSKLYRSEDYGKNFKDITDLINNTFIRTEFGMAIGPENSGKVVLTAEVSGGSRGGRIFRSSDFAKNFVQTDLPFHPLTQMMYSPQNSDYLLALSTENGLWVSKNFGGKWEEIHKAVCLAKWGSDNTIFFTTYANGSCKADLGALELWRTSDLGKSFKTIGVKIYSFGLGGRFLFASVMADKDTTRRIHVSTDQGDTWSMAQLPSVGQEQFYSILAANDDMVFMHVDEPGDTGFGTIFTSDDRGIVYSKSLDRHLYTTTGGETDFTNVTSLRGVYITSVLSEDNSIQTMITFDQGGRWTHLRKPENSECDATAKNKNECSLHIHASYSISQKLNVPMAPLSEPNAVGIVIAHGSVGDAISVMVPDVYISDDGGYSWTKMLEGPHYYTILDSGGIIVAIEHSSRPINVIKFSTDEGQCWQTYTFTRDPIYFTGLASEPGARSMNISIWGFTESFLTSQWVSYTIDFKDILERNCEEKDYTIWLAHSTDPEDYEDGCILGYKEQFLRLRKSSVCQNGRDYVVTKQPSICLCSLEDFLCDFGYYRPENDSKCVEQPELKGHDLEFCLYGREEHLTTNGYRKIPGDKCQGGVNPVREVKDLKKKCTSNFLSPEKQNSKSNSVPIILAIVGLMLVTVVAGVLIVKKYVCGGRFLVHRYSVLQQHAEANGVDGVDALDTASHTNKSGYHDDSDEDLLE
UniProt Q6PHU5, residues 74-825: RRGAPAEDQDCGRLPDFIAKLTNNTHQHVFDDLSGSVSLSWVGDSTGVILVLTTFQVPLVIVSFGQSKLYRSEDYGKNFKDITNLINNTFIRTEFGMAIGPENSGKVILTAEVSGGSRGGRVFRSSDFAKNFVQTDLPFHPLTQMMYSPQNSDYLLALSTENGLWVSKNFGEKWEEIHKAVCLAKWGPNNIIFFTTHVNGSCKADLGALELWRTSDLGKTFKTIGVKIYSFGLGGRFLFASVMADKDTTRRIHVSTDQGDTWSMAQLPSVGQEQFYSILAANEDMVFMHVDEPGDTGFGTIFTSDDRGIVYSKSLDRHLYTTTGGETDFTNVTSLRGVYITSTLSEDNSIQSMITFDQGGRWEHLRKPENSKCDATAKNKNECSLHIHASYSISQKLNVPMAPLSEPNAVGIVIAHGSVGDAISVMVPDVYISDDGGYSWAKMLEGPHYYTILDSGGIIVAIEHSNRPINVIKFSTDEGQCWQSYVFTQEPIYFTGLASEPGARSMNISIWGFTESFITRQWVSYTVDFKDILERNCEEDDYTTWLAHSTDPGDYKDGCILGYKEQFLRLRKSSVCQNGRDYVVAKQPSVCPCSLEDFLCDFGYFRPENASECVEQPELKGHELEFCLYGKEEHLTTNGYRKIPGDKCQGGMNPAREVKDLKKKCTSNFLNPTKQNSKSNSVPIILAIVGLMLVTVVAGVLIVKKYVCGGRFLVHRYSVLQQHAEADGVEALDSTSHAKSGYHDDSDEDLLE

Experiments:
[1] = biological target: wild type sortilin expressed in COS-7 cells (UniProt Q99523); test: competition of binding of alkaline phosphatase fusion ligands to transfected cells; sortilin expressing COS-7 cells incubated with 150 nM purified his-PGRN, his-PGRNΔ3aa or C18 peptide of indicated concentrations for 1 hour before adding 10 nM of AP-PGRN or AP-C24; the competitor on sortilin; only the binder purified
[2] = biological target: mouse sortilin expressed in COS-7 cells (mouse) (UniProt Q6PHU5); test: binding of alkaline phosphatase fusion ligands to transfected cells; COS-7 cells transfected with mouse sortilin incubated with 10 or 50 nM of AP tagged mC24, mC21 or hC24
[3] = biological target: wild type sortilin expressed in COS-7 cells (UniProt Q99523); test: binding of alkaline phosphatase fusion ligands to transfected cells; conditioned media with AP ligands (100 nM where stated) incubated with sortilin transfected COS-7 cells 2 hrs at room temperature, fixation, heat inactivation of endogenous AP; bound AP measured with the ImageXpress system

B1: C18 peptide C-terminal to the granulin E motif of progranulin (peptide)
peptide: EAPRWDAPLRDPALRQLL
binding [1]: binds

B2: AP tagged C24 of mouse progranulin (domain or fragment, UniProt P28798 566-589)
chain: TKCLRKKIPRWDMFLRDPVPRPLL
binding [2]: binds

B3: alkaline phosphatase fusion with the C-terminal 6 residues of progranulin (domain or fragment)
chain: ALRQLL
binding [3]: binds
